Results as given in article PMC9830504.
Results are given in words; binding and its absence hold for the method and conditions named. Binding seen in cells or lysates may run through a third protein. Binding can be weak; no strength is given. Values belong to the molecule of their own block, whether it stands above or below them.

Amino acid sequences for entries named in this document (tags omitted). A change or cut given only in a name is not applied to a line headed by its entry.
UniProt P34130: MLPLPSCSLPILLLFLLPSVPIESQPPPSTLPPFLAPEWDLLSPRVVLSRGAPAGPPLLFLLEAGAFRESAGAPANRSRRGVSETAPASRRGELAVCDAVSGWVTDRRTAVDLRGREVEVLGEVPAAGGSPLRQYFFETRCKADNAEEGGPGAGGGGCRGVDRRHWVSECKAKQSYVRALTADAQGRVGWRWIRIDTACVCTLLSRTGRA
UniProt P78527: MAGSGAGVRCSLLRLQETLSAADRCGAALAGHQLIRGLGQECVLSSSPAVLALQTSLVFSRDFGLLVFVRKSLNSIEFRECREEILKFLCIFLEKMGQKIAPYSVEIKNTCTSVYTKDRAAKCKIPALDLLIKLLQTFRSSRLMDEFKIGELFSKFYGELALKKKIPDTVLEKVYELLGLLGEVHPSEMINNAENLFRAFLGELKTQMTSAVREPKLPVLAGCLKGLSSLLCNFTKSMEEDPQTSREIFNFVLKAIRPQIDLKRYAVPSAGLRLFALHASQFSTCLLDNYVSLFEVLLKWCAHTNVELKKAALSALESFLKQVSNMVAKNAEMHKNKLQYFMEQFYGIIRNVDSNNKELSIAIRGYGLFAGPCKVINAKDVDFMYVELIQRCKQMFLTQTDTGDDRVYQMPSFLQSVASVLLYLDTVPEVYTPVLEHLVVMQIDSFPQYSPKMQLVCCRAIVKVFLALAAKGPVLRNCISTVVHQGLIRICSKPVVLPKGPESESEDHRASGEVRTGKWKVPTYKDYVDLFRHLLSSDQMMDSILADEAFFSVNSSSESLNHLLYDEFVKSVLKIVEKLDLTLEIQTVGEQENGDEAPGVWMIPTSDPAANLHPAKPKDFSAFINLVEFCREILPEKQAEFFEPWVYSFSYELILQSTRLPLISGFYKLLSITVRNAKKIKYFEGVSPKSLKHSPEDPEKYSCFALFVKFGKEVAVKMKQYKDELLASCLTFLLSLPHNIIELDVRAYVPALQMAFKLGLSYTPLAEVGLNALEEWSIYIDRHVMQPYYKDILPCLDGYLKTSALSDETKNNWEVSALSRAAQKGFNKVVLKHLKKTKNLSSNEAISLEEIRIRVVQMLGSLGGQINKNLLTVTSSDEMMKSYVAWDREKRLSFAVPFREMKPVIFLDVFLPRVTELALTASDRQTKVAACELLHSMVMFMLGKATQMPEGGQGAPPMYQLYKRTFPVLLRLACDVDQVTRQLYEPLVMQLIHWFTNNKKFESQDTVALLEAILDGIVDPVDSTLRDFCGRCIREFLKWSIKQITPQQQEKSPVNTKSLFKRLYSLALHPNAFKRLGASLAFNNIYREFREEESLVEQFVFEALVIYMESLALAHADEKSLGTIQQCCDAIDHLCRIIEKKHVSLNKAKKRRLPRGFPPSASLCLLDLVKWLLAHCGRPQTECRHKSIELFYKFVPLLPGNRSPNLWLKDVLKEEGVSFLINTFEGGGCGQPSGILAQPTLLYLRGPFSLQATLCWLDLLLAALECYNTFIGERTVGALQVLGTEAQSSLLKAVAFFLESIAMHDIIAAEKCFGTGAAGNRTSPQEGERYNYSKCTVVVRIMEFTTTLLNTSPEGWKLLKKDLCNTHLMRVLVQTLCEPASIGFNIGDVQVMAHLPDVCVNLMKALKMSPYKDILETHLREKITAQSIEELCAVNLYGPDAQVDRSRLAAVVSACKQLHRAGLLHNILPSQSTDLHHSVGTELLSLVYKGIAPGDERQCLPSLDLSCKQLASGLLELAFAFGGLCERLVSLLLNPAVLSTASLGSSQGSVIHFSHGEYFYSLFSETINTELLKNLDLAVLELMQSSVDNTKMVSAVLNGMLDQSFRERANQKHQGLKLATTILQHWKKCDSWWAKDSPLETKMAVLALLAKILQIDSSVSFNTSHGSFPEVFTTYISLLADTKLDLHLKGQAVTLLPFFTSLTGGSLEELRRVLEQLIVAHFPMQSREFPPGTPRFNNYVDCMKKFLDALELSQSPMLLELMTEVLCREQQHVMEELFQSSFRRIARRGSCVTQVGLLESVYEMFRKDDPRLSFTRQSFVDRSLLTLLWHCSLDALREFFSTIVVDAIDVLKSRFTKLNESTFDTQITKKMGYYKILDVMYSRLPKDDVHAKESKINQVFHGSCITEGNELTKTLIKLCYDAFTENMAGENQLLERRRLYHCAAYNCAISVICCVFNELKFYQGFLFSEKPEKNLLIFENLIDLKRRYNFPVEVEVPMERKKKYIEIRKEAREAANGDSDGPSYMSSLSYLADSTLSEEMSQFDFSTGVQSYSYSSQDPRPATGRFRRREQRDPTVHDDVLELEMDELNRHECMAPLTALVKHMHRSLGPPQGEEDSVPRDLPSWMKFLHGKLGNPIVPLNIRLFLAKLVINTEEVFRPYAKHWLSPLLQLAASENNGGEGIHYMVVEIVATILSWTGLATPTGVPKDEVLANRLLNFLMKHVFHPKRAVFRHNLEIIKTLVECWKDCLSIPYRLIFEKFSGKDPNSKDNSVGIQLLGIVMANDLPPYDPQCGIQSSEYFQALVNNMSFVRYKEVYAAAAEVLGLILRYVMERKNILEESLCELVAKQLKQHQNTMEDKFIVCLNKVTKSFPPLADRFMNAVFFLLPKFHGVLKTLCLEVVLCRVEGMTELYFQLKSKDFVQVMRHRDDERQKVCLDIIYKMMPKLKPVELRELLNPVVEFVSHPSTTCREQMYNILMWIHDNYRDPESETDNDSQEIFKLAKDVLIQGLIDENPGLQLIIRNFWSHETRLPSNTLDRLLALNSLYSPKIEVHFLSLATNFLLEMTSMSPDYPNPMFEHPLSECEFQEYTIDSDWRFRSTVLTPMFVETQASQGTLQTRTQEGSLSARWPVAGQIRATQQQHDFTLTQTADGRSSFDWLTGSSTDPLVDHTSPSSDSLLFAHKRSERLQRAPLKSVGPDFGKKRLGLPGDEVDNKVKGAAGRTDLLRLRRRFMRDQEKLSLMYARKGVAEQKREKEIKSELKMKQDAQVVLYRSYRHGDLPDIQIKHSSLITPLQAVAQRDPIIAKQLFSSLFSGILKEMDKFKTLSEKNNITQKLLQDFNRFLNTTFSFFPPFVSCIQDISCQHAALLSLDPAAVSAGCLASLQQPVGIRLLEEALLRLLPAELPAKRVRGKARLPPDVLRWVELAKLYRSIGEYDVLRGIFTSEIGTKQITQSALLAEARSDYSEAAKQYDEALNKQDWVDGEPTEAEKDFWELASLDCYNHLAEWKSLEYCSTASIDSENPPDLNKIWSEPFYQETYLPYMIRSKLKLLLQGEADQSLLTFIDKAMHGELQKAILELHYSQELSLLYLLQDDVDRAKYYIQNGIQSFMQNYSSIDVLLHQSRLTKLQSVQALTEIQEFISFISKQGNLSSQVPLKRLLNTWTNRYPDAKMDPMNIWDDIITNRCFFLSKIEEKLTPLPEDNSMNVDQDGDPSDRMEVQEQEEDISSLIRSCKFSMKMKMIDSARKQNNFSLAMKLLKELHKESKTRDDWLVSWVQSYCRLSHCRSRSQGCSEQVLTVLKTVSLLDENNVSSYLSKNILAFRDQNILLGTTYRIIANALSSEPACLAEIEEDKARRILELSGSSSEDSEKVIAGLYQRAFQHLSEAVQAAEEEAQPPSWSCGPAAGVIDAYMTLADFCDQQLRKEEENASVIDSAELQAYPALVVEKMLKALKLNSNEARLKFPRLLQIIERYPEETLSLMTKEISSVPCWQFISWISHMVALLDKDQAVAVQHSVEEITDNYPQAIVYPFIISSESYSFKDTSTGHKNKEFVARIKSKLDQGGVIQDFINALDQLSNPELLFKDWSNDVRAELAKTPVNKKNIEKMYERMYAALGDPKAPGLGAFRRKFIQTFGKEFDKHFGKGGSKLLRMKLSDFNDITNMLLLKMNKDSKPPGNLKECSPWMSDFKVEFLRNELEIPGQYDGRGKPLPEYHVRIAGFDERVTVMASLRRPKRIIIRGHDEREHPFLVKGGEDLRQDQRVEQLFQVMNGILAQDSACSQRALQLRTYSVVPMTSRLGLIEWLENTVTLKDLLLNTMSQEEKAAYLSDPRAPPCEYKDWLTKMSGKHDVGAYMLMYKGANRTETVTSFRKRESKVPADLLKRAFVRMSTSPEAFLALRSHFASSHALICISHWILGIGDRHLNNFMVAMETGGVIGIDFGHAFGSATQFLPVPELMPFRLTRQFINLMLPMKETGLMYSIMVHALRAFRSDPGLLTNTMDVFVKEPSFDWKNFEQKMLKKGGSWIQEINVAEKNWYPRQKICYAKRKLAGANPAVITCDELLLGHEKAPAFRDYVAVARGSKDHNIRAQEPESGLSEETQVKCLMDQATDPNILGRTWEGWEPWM

Biological target: neurotrophin 4 (Flag-NTF4) (UniProt P34130)
Test: co-IP; Co-IP of NTF4 with PRKDC and ANXA1 on Protein A/G magnetic beads, then SDS-PAGE and immunoblot; cells and precipitating antibody not told for this panel

binding: binds
Molecule: DNA-dependent protein kinase catalytic subunit (PRKDC) (from UniProt P78527 1-4128)

binding: binds
B1: Annexin A1 (ANXA1) (protein, UniProt P04083 1-346)
chain: MAMVSEFLKQAWFIENEEQEYVQTVKSSKGGPGSAVSPYPTFNPSSDVAALHKAIMVKGVDEATIIDILTKRNNAQRQQIKAAYLQETGKPLDETLKKALTGHLEEVVLALLKTPAQFDADELRAAMKGLGTDEDTLIEILASRTNKEIRDINRVYREELKRDLAKDITSDTSGDFRNALLSLAKGDRSEDFGVNEDLADSDARALYEAGERRKGTDVNVFNTILTTRSYPQLRRVFQKYTKYSKHDMNKVLDLELKGDIEKCLTAIVKCATSKPAFFAEKLHQAMKGVGTRHKALIRIMVSRSEIDMNDIKAFYQKMYGISLCQAILDETKGDYEKILVALCGGN
